PubChem BioAssay AID1745846 (National Center for Advancing Translational Sciences (NCATS), 2022)
Out of some 1,400 compounds screened, about 30 (2%) were called active. About 15% were inconclusive and are not listed. Calls come from the whole dose curve; as a rule, active = well fitted inhibition curve with a large enough effect; inconclusive = small, poorly fitted or top-dose-only effect; inactive = flat fitted curve, though single readings scatter. The list shows a part of the results.

test: Firefly Luciferase Counterscreen for Inhibitors of ATXN expression; details: luminescence; series mostly up to 57.5 µM; activity change, negative = inhibition: at the top concentration
How it was run: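 Recombinant firefly luciferase at 10 nM final in 50 mM Tris pH 7.5, 10 mM MgCl2, 0.05% BSA, 0.01% Tween20 with substrate; compounds up to 57 uM final, 10 min room temperature, end-point luminescence. Buffer-only wells define 100% inhibition.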
% is set by controls: 0 for no effect and ±100 for the full control effect; potency is the fitted concentration of half-maximal effect.

| SMILES | activity change, negative = inhibition | Potency |
| --- | --- | --- |
| CC1=CC(C)(C)Nc2ccc(OC(=O)CN3C(=O)c4cccc5cccc(c45)C3=O)cc21 | inactive: -3.93% |  |
| O=c1nc(N/N=C/c2ccccn2)cn[nH]1 | inactive: -1.23% |  |
| Cc1nnc(SC(C)C(=O)Nc2ccc(Cl)cn2)n1Cc1ccccc1 (centres undefined) | inactive: -1.28% |  |
| CCc1ccc(-c2csc(NC(=O)C3CC(=O)N(c4ccc5c(c4)OCCO5)C3)n2)cc1 (centres undefined) | inactive: -16.1% |  |
| CN(C)c1ccc(NC(=O)Nc2nc(C(N)C3CCCCC3)cs2)cc1 (centres undefined) | inactive: -7.26% |  |
| COc1cc(OC)cc(-c2cc3nc(C)c(CCC(=O)O)c(C)n3n2)c1 |  | active: 12.6 µM |
| CN(C)CCCN(C(=O)c1ccc2c(c1)CCCC2)c1nc2cc3c(cc2s1)OCO3 | inactive: 0.029% |  |
| CC(C)CC(NC(=O)c1ccc(Cl)cc1)C(=O)OCC(=O)c1ccc2c(c1)NC(=O)CO2 (centres undefined) | inactive: -4.97% |  |
| COc1ccc(C(=O)NC(=S)NNC(=O)c2c(-c3ccccc3)noc2C)cc1OC | inactive: -9.76% |  |
| Cc1cc(Cl)c(C(=O)Nc2cccc(C(F)(F)F)c2)c(C)n1 | inactive: 0.27% |  |
| CCn1nc(C(=O)Nc2ccccc2N2CCCC2)c2ccccc2c1=O | inactive: -0.973% |  |
| O=C(N/N=C/c1cc([N+](=O)[O-])ccc1O)c1ccc(COc2ccc3c(c2)CCC3)o1 | inactive: -5.38% |  |
| O=C(Nc1ccc2oc(=O)ccc2c1)c1ccc(-c2cccc(Cl)c2)o1 | inactive: 1.78% |  |
| Cc1cc(SCC(=O)N/N=C/c2ccc(O)cc2O)c(C)cc1Br | inactive: -11.7% |  |
| N#Cc1c(N)n(C2OC(CO)C(O)C2O)c2ncnc(N)c12 (centres undefined) | inactive: 2.38% |  |
| COc1ccc(/C=C/C(=O)c2ccc([N+](=O)[O-])o2)cc1OC | inactive: -1.12% |  |
| Oc1c(CN2CCN(c3ccccc3)CC2)cc(Br)c2cccnc12 | inactive: -0.274% |  |
| O=C1Nc2c(Br)cc(Br)c3cccc1c23 | inactive: 2.55% |  |
| COCCNC(=O)c1cccc(Nc2nc(-c3ccccc3)c3cc(Cl)ccc3n2)c1 | inactive: 0.238% |  |
| Cc1cc(C(=O)CN2C(=O)c3ccccc3S2(=O)=O)c(C)n1CC1CCCO1 (centres undefined) |  | active: 6.31 µM |
| CCC1=C(OC(=O)N(CC)CC)N2C(=O)OC(=NCCc3c[nH]c4ccccc34)[C@]2(Cc2ccccc2)[C@H]2C1=CC[C@H]1C(=O)N(c3ccccc3)C(=O)[C@H]12 | inactive: 1.45% |  |
| COc1cccc(C(=O)Oc2c(CN3CCOCC3)cc(Cl)c3cccnc23)c1 | inactive: -0.59% |  |
| COC(=O)C1=C(C)N(Cc2ccccc2)C(=NCCc2cccnc2)N[C@H]1c1ccc(Br)cc1 | inactive: -2.23% |  |
| COc1ccc2c(-c3ccc(S(N)(=O)=O)cc3)c(-c3ccc(S(C)(=O)=O)cc3)sc2c1 | inactive: -0.809% |  |
| COC(=O)N/N=C/c1cn(CC(C)COc2ccccc2)c2ccccc12 (centres undefined) | inactive: -3.7% |  |

| SMILES | activity change, negative = inhibition | Potency |
| --- | --- | --- |
| CCCCC(=O)NC(c1ccccc1Cl)c1ccc2cccnc2c1O (centres undefined) | inactive: 1.43% |  |
| Cc1ccc(C(=O)N/C(=C/c2ccc(-c3ccc([N+](=O)[O-])cc3)o2)C(=O)NCCCN(C)C)cc1 | inactive: -0.319% |  |
| Cc1ccc(C(=O)N(CCCN(C)C)c2nc3ccc(Cl)cc3s2)cc1C | inactive: 0.344% |  |
| CCOC(=O)c1c(CSc2nc(C)cc(C)c2C#N)n(C)c2cc(Br)c(OC(C)=O)cc12 | inactive: 2.39% |  |
| COc1cc2c3nnc(-c4ccc(F)cc4)c-3cn(Cc3ccc(C)cc3)c2cc1OC | inactive: 2.15% |  |
| c1ccc(-c2nnc(-c3ccccn3)nc2NC2CCCCC2)cc1 | inactive: -3.58% |  |
| Cn1c2ccccc2c(=O)c2c(=O)n(C3CCCCC3)c(-c3cccs3)nc21 | inactive: -7.28% |  |
| O=C(COc1ccc(Cl)cc1)N/N=C/c1cccc2cccnc12 | inactive: 3.77% |  |
| CN1CCN(CCNC(=O)c2ccc3nc(-c4ccc(F)cc4)c(-c4ccc(F)cc4)nc3c2)CC1 | inactive: 1.75% |  |
| CC(=NNc1nc2ccccc2o1)c1ncccn1 |  | active: 14.1 µM |
| Oc1c(Cl)cc(Cl)cc1/C=N/Nc1ncc(Br)cn1 | inactive: 0.321% |  |
| CCc1ccc(-c2cc(C(F)(F)F)n3nc(C(=O)Nc4cnn(Cc5ccc(C)cc5)c4)cc3n2)s1 | inactive: 4.16% |  |
| CCN1CCN(c2ccc(Cl)cc2NC(=O)c2ccc(-n3nc(C)cc3C)cc2)CC1 | inactive: 1.92% |  |
| COc1ccc(C(CCNC(C)c2ccccc2)c2ccc(F)cc2)cc1 (centres undefined) | inactive: 0.131% |  |
| COc1cccc(NC(=S)/C(=C(\[O-])c2cc(C)n(-c3ccccc3F)c2C)[n+]2ccc(N(C)C)cc2)c1 |  | active: 15.8 µM |
| Cn1nccc1C(=O)N1CCCC(C(=O)c2cccc3ccccc23)C1 (centres undefined) | inactive: -5.05% |  |
| CCOC(=O)c1c(-c2ccccc2)oc2cc(CN(C)C)c(O)c(CN(C)C)c12 | inactive: 1.49% |  |
| CCCC(=O)NC(c1ccc(OC)cc1)c1ccc2cccnc2c1O (centres undefined) | inactive: -0.133% |  |
| Cc1c(C(=O)Nc2nonc2-c2ccc(F)cc2)oc2ccc(F)cc12 | inactive: -6.36% |  |
| CN(C)C(CNC(=O)c1cccc(S(=O)(=O)N2CCN(c3ccc(F)cc3)CC2)c1)c1ccccc1 (centres undefined) | inactive: 0.537% |  |
| Nc1cc2c3c(cccc3c1)C(=O)N(CCN1CCCC1)C2=O | inactive: -0.359% |  |
| CC1CC2(C)Oc3ccccc3CC2C(C)C1CNCCCN(C)C (centres undefined) | inactive: 3.4% |  |
| O=[N+]([O-])c1cc(Cl)c(O)c2ncccc12 | inactive: -17.6% |  |
| CC(=O)Nc1cc(-c2ccc(C(=O)NC3CC3)cc2)cn2c(-c3cccc(C(C)=O)c3)cnc12 | inactive: -11.2% |  |
| CC(=O)Nc1cccc(-c2ccnc3c2CC(C)(C(=O)Nc2ccc(Cl)c(C(F)(F)F)c2)O3)c1 (centres undefined) | inactive: -1.06% |  |

| SMILES | activity change, negative = inhibition | Potency |
| --- | --- | --- |
| O=C(CSc1nc2ncc(Cl)cc2[nH]1)Nc1cccc(F)c1 | inactive: -2.03% |  |
| Cc1[nH]c2ccccc2c1SCc1nnc(SCc2ccc(Cl)cc2)n1C | inactive: -1.46% |  |
| O=C(O)CCn1cc(/C=C/C(=O)c2ccc(Cl)cc2)c(-c2ccc(Br)cc2)n1 | inactive: -19.4% |  |
| COc1ccc(CNC(=O)Nc2nc(C(N)Cc3ccc(C(F)(F)F)cc3)cs2)cc1 (centres undefined) | inactive: -2.52% |  |
| COc1ccc(-n2nc(C(=O)NCC(=O)Nc3cccc(Cl)c3)c3ccccc3c2=O)cc1OC | inactive: 1.16% |  |
| CC(=O)c1cccc(-c2csc3ncnc(Sc4nnnn4C)c23)c1 | inactive: -1.25% |  |
| COc1cccc(S(=O)(=O)NCc2ccc(C(=O)Nc3cccc(Cl)c3)cc2)c1 | inactive: -2.18% |  |
| Oc1c(C(Nc2nccs2)c2ccc(C(F)(F)F)cc2)ccc2cccnc12 (centres undefined) | inactive: -8.69% |  |
| N/C(=N\NC(=O)c1sccc1OCc1ccc(Cl)cc1Cl)c1ccccn1 | inactive: -1.44% |  |
| CCOC(=O)N1CCN(c2ncnc3c2[nH]c2ccc(F)cc23)CC1 | inactive: -1.8% |  |
| O=C(CN1CC(c2ccccc2)CC1=O)N/N=C/c1cc(Br)ccc1O (centres undefined) | inactive: -4.24% |  |
| COc1cc2c(C(=O)N3CCOCC3)c(CSc3ccccc3)n(C)c2cc1Br | inactive: -1.61% |  |
| CCOc1ccc(-n2c(SCc3ccc([N+](=O)[O-])cc3)nnc2-c2ccccc2)cc1 | inactive: -9.1% |  |
| Cc1ccccc1C(=O)/C(C#N)=N/Nc1c(C)n(C)n(-c2ccccc2)c1=O | inactive: -0.209% |  |
| Cc1cc(NC(=O)CSc2nc3c(sc4ccccc43)c(=O)n2CCCN2CCOCC2)n[nH]1 | inactive: -0.172% |  |
| O=[N+]([O-])c1ccc(O)c(/C=N/Nc2ccccn2)c1 | inactive: -4.31% |  |
| Oc1c(C(c2ccccn2)N2CCCCC2)cc(Cl)c2cccnc12 (centres undefined) | inactive: -5.74% |  |
| COc1ccc(Oc2c(Cl)cnn(-c3ccc(C)cc3)c2=O)cc1 | inactive: -2.27% |  |
| CC(=O)Nc1ccc(Nc2c3ccccc3nc3ccccc23)cc1 | inactive: -8.27% |  |
| COc1ccc(OCCNC(=O)C2(C)CCN2Cc2ccc3ccccc3c2)cc1 (centres undefined) | inactive: -2.48% |  |
| Cc1cccn2c(=O)c(C(=O)NC3CC(C)CC(C)(C)C3)c(O)nc12 (centres undefined) | inactive: 2.03% |  |
| OCCN1CCN(Cc2cc(Cl)c3cccnc3c2O)CC1 | inactive: 0.949% |  |
| O=C(COC(=O)c1cc([N+](=O)[O-])ccc1N1CCOCC1)Nc1ccc(Cl)cn1 | inactive: 1.13% |  |
| CCOc1ccc(C(=O)Nc2ccc(Cc3ccncc3)cc2)cc1Br | inactive: -16.7% |  |
| CN1CCN(c2ccccc2NC(=O)c2ccc(-c3ccc(Cl)c(Cl)c3)o2)CC1 | inactive: 2.05% |  |

| SMILES | activity change, negative = inhibition | Potency |
| --- | --- | --- |
| Cc1ccc(NC(=O)COc2ccc(Br)cc2CO)cc1S(=O)(=O)N1CCOCC1 | inactive: -4.3% |  |
| CC(=O)N1c2ccc(S(=O)(=O)N3CCC(C(=O)N4CCN(c5ccc(Cl)cc5)CC4)CC3)cc2CC1C (centres undefined) | inactive: -0.287% |  |
| CCOC(=O)c1c(C)nn(-c2ccc(NC(=O)c3cccs3)cc2)c1C | inactive: -9.56% |  |
| O=C(CSc1nc(Nc2ccccc2)nc(N2CCOCC2)n1)Nc1cc(Cl)ccc1O | inactive: -11.9% |  |
| CCCCN1C(=O)/C(=C2/Sc3ccccc3N2C)S/C1=N\c1ncn[nH]1 | inactive: -6.33% |  |
| O=c1c2ccccc2sc2c(CO)ccc(NCCN3CCCCC3)c12 | inactive: -1.36% |  |
| COc1ccc2nc(C)cc(Nc3ccc(N4CCOCC4)cc3)c2c1 | inactive: 0.237% |  |
| O=S(=O)(c1ccc(F)cc1)c1snnc1-c1ccccc1 | inactive: 1.44% |  |
| O=C(NNC(=O)C12CC3CC(CC(C3)C1)C2)c1ccccn1 | inactive: -4.43% |  |
| Cc1ccc(C(=O)N/C(=C\c2ccc(-c3ccc(Cl)cc3)o2)C(=O)NCCCN(C)C)cc1 | inactive: -2.25% |  |
| c1ccc(Cn2c(-c3ccccc3)c[n+]3c2SCCC3)cc1 | inactive: 2.54% |  |
| CN(C)CCCN(C(=O)c1ccco1)c1nc2ccc(Br)cc2s1 | inactive: -9.87% |  |
| Cn1c(COc2ccc(Cl)cc2)nnc1SCc1ncc(-c2ccccc2)o1 | inactive: -8.84% |  |
| N#C/C(=C\C=C\c1ccccc1[N+](=O)[O-])C(=O)NC1CCCCC1 | inactive: -6.94% |  |
| O=[N+]([O-])c1ccc(O)c2ncccc12 | inactive: -14.6% |  |
| Cc1cc(O)c(C(C)C)cc1N=Cc1ccccc1[N+](=O)[O-] | inactive: -8.59% |  |
| Cc1cc(C)nc(/N=C(\N)Nc2ccc(OCc3ccccc3)cc2)n1 | inactive: -2.97% |  |
| O=C1N/C(=N/N=C/c2ccccc2O)SC1Cc1ccc(F)cc1 (centres undefined) | inactive: -4.65% |  |
| COc1ccc(C)cc1NC(=O)COC(=O)c1c(C)nn(-c2ccccc2)c1C | inactive: -5.21% |  |
| CC(C)(C)c1cc(C(=O)NN)n(Cc2ccc(Cl)cc2Cl)n1 | inactive: -0.197% |  |
| CC(=O)Oc1ccc(N(C(C)=O)S(=O)(=O)c2cccs2)c2ccccc12 | inactive: -8.46% |  |
| CCc1nn2cc(C(=O)c3cc(Cl)ccc3O)cnc2c1-c1ccc(F)cc1 | inactive: -7.19% |  |
| NC(c1csc(Nc2ccc(C(F)(F)F)cn2)n1)C1CCCCC1 (centres undefined) | inactive: 3.49% |  |
| O=C(N/N=C/c1cc([N+](=O)[O-])ccc1O)c1cccc2cc[nH]c12 | inactive: -6.69% |  |

Complete entries, looked up by structure:
CCc1nn2cc(C(=O)c3cc(Cl)ccc3O)cnc2c1-c1ccc(F)cc1 is listed as activity change, negative = inhibition: inactive: -7.19%
N#C/C(=C\C=C\c1ccccc1[N+](=O)[O-])C(=O)NC1CCCCC1 is listed as activity change, negative = inhibition: inactive: -6.94%
O=C(CSc1nc(Nc2ccccc2)nc(N2CCOCC2)n1)Nc1cc(Cl)ccc1O is listed as activity change, negative = inhibition: inactive: -11.9%
Cc1ccc(NC(=O)COc2ccc(Br)cc2CO)cc1S(=O)(=O)N1CCOCC1 is listed as activity change, negative = inhibition: inactive: -4.3%
